Measurements reported in PubChem BioAssay AID504804 (Drosophila RNAi Screening Center, 2011).
Assay: 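Fly genes whose loss lessens doxorubicin-driven cell death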 (primary screen). Cell system: Drosophila Kc cells. Knock-down reagent: long dsRNA against Drosophila genes, 0.5 µg dsRNA per well. Duration: 96 h (48 h knock-down, then 48 h drug). Conditions: doxorubicin 5 µg/ml for 48 h, added 48 h after dsRNA. Measurement: 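Viability measured as cellular ATP by luminescence after 48 h knock-down then 48 h doxorubicin at 5 µg/ml; unnormalised plate counts for each replicate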. Scale: raw ATP luminescence: higher = more viable cells, protection from doxorubicin. Rule for the call: 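Active when both duplicate wells lie at least 2 SD above the plate mean and protection is confirmed by rescreening and independent dsRNAs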.
The deposit covers about 19,000 reagents; this is an unselected part of those that have a named target and a result. Of all reagents, 47 (0.25%) were called active. 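Signals are raw, not normalised; exact z-scores behind calls not deposited; actives needed confirmation, so some wells reaching 2 SD are inactive.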 Entries without a mark were called inactive.

CG11309 [DRSC11650] gave raw ATP luminescence, replicate 1 = 27577; raw ATP luminescence, replicate 2 = 22660.
With knock-down of sgll (sugarlethal) [DRSC15442] the results were raw ATP luminescence, replicate 1 = 67480; raw ATP luminescence, replicate 2 = 74020.
Depletion of fz2 (frizzled 2) [DRSC09595] came out at: raw ATP luminescence, replicate 1 = 61443; raw ATP luminescence, replicate 2 = 56077.
After knock-down of fz2 (frizzled 2) [DRSC10087], the screen gave raw ATP luminescence, replicate 1 = 19803; raw ATP luminescence, replicate 2 = 17727.
Against fz2 (frizzled 2) [DRSC11349] the deposit lists raw ATP luminescence, replicate 1 = 63453; raw ATP luminescence, replicate 2 = 65423.
For CG3793 [DRSC01982] the deposit lists raw ATP luminescence, replicate 1 = 97857; raw ATP luminescence, replicate 2 = 58237.
After knock-down of CG32188 [DRSC09510] the results were raw ATP luminescence, replicate 1 = 65640; raw ATP luminescence, replicate 2 = 73090.
Adck5 (aarF domain containing kinase 5) [DRSC10890] scored raw ATP luminescence, replicate 1 = 70527; raw ATP luminescence, replicate 2 = 84193.
After knock-down of scpr-B (SCP-containing protein B) [DRSC15200] the results were raw ATP luminescence, replicate 1 = 47750; raw ATP luminescence, replicate 2 = 25797.
After knock-down of CG2225 [DRSC03722] the results were raw ATP luminescence, replicate 1 = 67047; raw ATP luminescence, replicate 2 = 59833.
With knock-down of CG2225 [DRSC03723], the screen gave raw ATP luminescence, replicate 1 = 50360; raw ATP luminescence, replicate 2 = 47270.
Against SPH93 (Serine protease homolog 93) [DRSC02978] the deposit lists raw ATP luminescence, replicate 1 = 61900; raw ATP luminescence, replicate 2 = 78780.

Targets above whose target name begins with S or s (3):
sgll (sugarlethal) [DRSC15442] → raw ATP luminescence, replicate 1: 67480; raw ATP luminescence, replicate 2: 74020
scpr-B (SCP-containing protein B) [DRSC15200] → raw ATP luminescence, replicate 1: 47750; raw ATP luminescence, replicate 2: 25797
SPH93 (Serine protease homolog 93) [DRSC02978] → raw ATP luminescence, replicate 1: 61900; raw ATP luminescence, replicate 2: 78780
